Values quoted from earlier work in patent US11395821B2, “Treatment of EGFR-driven cancer with fewer side effects” (G1 Therapeutics, Inc., priority 2017, dated 2022).
Some of these results come from one statement about several compounds together.

Test system: EGFR-mutant EGFR-T790M NSCLC
Settings: patients who have developed resistance to gefitinib or erlotinib; cited from earlier work

## C=CC(=O)Nc1cc(Nc2nccc(-c3cn(C)c4ccccc34)n2)c(OC)cc1N(C)CCN(C)C [osimertinib]
  response rate: > 50%
